# This is a selection; strong and weak results do not stand in their true shares.
# Sequences of proteins named here, by UniProt entry; tags and fusion partners are left off. A change or cut given only in a name is not applied to a line headed by its entry.
# UniProt O94761: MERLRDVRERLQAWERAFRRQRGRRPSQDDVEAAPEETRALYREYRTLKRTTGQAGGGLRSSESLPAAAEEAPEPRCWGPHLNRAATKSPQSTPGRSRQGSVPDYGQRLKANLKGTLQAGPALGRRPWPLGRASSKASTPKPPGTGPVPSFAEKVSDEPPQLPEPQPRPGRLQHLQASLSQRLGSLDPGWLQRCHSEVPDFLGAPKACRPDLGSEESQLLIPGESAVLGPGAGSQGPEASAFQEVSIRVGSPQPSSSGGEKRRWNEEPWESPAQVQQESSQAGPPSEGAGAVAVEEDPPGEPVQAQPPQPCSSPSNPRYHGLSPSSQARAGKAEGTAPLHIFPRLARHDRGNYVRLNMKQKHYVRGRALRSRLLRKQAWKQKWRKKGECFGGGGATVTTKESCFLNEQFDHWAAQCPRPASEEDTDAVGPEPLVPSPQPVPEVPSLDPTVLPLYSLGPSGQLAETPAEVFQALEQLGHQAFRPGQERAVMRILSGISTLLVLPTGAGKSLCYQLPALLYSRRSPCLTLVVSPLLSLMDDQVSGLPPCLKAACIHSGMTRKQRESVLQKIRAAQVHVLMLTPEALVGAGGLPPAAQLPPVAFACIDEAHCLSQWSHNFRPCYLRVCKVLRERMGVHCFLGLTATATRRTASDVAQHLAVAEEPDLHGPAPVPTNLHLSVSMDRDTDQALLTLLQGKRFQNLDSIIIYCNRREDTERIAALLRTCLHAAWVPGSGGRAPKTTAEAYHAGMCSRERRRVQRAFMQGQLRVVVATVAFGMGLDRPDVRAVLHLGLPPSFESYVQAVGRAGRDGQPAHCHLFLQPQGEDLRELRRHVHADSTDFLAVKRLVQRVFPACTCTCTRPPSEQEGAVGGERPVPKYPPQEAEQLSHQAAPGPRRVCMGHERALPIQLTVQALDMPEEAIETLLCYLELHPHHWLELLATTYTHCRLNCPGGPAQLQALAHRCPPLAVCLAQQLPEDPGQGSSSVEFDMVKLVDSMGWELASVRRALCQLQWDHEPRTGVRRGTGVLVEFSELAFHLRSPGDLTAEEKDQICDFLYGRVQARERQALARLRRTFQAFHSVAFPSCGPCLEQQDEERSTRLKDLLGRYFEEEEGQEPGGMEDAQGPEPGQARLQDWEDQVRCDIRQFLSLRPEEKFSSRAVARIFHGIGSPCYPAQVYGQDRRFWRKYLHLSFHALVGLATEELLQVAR
# UniProt O75376, whole entry, looked up: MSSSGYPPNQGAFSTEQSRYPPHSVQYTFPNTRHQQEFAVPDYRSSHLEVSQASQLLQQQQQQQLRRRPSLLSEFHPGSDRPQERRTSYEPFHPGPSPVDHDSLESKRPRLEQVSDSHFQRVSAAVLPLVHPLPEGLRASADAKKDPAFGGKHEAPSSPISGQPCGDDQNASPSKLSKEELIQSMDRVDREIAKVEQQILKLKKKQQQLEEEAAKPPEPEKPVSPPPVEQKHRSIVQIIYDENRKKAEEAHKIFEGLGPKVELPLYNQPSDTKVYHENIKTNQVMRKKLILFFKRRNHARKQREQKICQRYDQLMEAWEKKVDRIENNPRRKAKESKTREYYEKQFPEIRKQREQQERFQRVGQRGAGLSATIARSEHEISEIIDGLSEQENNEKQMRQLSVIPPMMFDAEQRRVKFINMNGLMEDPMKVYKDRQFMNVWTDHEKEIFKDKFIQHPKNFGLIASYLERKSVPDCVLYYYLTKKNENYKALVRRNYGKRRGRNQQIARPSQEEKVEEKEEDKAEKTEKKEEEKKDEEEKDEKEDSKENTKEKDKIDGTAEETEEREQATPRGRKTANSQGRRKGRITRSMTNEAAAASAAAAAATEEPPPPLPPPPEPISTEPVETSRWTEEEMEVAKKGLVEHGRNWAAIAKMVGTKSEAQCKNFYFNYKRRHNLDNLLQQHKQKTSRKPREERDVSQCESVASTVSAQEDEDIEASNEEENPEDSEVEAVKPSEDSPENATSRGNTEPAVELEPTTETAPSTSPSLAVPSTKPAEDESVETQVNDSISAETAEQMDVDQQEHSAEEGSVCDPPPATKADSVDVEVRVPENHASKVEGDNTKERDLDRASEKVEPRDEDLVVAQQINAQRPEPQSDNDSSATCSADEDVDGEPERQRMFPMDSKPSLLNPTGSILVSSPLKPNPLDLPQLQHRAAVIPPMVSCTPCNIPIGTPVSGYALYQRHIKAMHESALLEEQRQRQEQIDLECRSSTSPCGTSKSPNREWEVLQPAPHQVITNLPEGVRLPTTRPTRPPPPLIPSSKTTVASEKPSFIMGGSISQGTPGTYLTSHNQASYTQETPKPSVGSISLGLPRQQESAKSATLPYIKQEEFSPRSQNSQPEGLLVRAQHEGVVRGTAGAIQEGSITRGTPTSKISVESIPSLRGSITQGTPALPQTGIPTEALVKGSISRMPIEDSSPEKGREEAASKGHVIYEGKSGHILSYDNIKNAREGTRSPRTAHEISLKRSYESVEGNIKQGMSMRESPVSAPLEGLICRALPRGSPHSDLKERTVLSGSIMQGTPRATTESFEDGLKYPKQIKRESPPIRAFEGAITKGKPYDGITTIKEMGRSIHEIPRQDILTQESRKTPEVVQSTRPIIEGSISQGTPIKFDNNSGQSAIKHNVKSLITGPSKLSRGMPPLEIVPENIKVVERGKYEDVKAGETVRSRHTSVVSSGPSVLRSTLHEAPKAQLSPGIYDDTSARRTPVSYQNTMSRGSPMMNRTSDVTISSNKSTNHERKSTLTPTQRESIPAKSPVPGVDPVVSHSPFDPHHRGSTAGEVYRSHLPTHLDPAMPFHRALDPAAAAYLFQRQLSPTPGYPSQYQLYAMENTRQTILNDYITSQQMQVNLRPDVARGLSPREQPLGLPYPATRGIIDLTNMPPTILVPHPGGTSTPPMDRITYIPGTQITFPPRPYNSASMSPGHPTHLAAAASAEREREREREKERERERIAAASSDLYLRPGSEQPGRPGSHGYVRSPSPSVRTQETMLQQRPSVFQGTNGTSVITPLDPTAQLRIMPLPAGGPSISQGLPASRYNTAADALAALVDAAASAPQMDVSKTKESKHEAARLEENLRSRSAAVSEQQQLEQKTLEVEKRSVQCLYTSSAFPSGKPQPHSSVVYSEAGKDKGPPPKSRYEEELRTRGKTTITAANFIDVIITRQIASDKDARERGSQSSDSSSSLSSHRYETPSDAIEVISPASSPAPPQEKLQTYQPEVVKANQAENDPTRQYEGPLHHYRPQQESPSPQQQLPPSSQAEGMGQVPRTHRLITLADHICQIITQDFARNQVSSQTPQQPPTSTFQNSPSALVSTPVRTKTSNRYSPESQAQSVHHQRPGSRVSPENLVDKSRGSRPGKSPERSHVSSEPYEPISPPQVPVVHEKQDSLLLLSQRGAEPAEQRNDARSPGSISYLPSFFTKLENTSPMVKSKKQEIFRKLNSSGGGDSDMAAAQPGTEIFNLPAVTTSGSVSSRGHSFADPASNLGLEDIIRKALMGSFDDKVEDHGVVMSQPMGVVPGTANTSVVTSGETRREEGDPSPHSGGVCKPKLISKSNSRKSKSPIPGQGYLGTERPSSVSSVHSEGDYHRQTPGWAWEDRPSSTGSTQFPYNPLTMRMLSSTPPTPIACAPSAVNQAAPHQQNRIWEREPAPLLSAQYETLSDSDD
# UniProt O43765: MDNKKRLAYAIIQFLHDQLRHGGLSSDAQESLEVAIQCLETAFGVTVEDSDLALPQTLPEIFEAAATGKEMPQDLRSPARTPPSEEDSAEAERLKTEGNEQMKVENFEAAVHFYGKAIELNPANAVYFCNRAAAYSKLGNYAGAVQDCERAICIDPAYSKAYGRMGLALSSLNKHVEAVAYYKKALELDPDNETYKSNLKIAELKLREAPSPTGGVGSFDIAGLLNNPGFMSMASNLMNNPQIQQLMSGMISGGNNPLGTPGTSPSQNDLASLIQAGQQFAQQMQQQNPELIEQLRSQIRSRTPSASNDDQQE
# UniProt O60502: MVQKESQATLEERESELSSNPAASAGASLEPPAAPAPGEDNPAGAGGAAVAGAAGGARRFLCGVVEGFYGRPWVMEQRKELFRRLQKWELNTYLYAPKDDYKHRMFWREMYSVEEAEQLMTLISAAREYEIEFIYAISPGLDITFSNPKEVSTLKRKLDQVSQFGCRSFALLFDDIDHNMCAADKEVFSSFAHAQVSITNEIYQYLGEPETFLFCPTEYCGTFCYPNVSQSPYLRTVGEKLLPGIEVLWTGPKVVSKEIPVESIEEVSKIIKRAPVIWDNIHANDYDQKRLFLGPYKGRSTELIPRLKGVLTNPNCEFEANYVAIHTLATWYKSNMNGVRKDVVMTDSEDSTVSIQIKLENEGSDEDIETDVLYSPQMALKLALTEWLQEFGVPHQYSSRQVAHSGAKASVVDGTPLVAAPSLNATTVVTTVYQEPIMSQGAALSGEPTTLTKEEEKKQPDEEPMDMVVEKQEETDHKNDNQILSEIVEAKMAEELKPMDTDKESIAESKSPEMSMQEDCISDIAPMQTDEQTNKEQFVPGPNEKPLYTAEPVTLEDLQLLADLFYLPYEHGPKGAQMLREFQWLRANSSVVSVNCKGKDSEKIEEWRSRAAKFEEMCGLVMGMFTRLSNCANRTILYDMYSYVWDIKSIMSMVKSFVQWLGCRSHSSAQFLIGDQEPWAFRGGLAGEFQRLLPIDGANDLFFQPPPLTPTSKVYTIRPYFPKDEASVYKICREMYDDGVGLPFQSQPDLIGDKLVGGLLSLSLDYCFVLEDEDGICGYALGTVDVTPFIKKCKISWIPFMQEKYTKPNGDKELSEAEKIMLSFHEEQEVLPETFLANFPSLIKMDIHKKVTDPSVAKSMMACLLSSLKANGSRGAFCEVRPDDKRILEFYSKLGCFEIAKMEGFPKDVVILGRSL
# UniProt O75940: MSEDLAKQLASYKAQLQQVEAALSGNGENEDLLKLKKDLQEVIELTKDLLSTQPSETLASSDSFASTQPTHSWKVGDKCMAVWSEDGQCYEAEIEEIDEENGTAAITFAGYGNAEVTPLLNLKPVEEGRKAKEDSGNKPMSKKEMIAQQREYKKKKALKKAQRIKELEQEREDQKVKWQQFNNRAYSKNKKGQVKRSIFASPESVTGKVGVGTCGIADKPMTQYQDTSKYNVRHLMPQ
# UniProt O75832: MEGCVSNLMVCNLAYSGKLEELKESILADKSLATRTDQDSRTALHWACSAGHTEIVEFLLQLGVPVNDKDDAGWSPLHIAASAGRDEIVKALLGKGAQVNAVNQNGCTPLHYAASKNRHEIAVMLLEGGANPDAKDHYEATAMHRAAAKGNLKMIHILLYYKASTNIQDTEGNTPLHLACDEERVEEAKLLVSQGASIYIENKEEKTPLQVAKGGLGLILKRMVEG
# UniProt O43823: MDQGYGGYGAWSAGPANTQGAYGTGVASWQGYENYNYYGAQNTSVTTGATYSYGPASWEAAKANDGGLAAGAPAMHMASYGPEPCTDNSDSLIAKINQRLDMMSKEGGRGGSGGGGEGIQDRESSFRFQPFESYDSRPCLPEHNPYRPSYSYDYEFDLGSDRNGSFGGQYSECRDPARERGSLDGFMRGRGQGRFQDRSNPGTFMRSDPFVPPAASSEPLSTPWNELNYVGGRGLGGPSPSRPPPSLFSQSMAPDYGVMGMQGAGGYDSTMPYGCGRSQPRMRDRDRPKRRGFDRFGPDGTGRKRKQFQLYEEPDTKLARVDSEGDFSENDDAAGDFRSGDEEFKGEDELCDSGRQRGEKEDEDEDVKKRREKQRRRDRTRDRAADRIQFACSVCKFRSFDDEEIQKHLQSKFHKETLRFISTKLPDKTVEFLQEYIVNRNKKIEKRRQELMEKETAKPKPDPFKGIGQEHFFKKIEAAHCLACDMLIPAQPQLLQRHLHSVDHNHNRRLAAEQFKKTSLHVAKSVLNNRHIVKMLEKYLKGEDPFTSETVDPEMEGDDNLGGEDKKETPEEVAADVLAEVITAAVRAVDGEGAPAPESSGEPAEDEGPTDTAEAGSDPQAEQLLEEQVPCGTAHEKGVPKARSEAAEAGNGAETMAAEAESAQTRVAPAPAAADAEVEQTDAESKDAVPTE
# UniProt O75487: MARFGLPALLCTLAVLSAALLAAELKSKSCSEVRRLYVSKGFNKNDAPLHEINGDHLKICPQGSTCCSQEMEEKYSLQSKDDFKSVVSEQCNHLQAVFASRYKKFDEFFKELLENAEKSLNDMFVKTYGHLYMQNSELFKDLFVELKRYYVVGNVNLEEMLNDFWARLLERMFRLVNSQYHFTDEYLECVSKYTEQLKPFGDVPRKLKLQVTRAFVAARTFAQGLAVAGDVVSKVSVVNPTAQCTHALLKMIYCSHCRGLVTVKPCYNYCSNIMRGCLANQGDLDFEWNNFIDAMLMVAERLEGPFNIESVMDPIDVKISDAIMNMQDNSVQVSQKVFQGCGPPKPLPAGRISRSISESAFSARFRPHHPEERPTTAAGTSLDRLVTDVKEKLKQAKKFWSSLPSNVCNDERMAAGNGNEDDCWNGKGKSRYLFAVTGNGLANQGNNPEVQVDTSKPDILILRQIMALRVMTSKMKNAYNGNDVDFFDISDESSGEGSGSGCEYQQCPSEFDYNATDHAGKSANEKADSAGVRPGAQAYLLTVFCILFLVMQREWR
# Compound: COC(=O)C#Cc1ccccc1 [methyl 3-phenylpropiolate]
# Test: log2 ratio of iodoacetamide-alkyne labeling of the cysteine site, DMSO over compound (competition); higher = stronger covalent engagement of the cysteine by the compound, active = 1 or more
# Conditions: 500 µM; treatment time 1 h; system: HEK293T cell lysate
# Procedure, shortened: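 The log2 competition ratio per cysteine is defined as mean reporter intensity in control channels over mean reporter intensity in compound channels. Lysate from HEK293T cells (2 mg/mL) received electrophile (500 µM) or vehicle for 1 h at ambient temperature, followed by iodoacetamide alkyne for 1 h. Samples were clicked to sCIP-TMT reagents, pooled, trypsin-digested overnight at 37 °C, streptavidin-enriched, acid-eluted and run on Orbitrap Eclipse LC-MS/MS with FAIMS, with quantification in FragPipe. Three replicates with duplicate channels were used, and any cysteine quantified in only one replicate was excluded.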
row,Target,log2 ratio of iodoacetamide-alkyne labeling
1,PPFIA2 C143 (UniProt O75334),inactive: -0.214
2,TBC1D4 C1286 (UniProt O60343),inactive: 0.473
3,RECQL4 C208 (UniProt O94761),inactive: 0.996
4,UniProt O75582_C714,inactive: 0.127
5,NCOR1 C1274 (UniProt O75376),inactive: 0.329
6,AP1G1 C353 (UniProt O43747),inactive: 0.32
7,SGTA C153 (UniProt O43765),inactive: -0.0876
8,UniProt O60502_C896,inactive: 0.404
9,NCOR1 C2056 (UniProt O75376),inactive: 0.386
10,NDUFS6 C87 (UniProt O75380),inactive: 0.043
11,SMNDC1 C214 (UniProt O75940),inactive: 0.406
12,PSMD10 C107 (UniProt O75832),inactive: -0.0397
13,ZFC3H1 C220 (UniProt O60293),inactive: 0.0402
14,AKAP8 C351 (UniProt O43823),inactive: 0.201
15,GPC4 C408 (UniProt O75487),inactive: 0.49

# As a short view, some entries already given.
row,Target,log2 ratio of iodoacetamide-alkyne labeling
14,AKAP8 C351 (UniProt O43823),inactive: 0.201
15,GPC4 C408 (UniProt O75487),inactive: 0.49

# Source: the supplement of paper PMC11006884
